PMC8536713
Like-named read-outs stand apart in the source and are kept apart here. Results are given in words; binding and its absence hold for the method and conditions named. In cells and extracts the contact can be indirect. These calls come from enrichment with a bait or labelling near it, and not all partners need be listed.

Sequences of proteins named here, by UniProt entry; tags and fusion partners are left off. A change or cut given only in a name is not applied to a line headed by its entry.
UniProt P33322: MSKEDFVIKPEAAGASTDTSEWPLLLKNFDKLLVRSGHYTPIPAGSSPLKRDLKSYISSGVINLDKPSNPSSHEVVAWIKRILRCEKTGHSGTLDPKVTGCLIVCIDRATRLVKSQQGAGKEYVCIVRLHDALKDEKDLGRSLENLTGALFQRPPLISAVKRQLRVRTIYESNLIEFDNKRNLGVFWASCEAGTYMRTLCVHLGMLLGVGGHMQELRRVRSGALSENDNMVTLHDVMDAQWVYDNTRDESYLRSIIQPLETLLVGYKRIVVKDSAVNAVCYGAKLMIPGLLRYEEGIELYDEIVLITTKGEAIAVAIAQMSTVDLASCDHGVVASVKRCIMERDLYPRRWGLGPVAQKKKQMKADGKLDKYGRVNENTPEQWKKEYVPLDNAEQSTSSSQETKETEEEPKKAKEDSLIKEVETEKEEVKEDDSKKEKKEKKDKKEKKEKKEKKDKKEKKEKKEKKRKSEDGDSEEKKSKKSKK
UniProt P20447: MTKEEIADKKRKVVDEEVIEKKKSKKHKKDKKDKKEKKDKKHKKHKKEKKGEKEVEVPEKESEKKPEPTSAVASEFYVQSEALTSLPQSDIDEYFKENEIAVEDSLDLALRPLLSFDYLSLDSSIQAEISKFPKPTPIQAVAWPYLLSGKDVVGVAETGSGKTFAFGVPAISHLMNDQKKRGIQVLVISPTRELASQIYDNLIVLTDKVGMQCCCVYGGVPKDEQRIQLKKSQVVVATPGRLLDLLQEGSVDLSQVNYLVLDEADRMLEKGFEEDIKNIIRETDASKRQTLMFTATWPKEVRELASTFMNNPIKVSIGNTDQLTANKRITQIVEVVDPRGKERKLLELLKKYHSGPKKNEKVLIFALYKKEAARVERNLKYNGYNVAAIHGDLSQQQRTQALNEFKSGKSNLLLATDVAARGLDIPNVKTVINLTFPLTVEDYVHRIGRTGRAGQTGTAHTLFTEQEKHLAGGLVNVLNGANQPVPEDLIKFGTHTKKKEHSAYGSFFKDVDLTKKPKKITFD
UniProt P28007: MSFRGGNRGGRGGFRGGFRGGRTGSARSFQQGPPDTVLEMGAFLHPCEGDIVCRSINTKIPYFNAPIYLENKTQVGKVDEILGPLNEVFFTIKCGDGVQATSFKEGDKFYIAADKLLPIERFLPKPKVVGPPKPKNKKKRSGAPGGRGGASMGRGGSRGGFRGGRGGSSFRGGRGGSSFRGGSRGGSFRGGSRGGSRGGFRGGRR
UniProt P34241: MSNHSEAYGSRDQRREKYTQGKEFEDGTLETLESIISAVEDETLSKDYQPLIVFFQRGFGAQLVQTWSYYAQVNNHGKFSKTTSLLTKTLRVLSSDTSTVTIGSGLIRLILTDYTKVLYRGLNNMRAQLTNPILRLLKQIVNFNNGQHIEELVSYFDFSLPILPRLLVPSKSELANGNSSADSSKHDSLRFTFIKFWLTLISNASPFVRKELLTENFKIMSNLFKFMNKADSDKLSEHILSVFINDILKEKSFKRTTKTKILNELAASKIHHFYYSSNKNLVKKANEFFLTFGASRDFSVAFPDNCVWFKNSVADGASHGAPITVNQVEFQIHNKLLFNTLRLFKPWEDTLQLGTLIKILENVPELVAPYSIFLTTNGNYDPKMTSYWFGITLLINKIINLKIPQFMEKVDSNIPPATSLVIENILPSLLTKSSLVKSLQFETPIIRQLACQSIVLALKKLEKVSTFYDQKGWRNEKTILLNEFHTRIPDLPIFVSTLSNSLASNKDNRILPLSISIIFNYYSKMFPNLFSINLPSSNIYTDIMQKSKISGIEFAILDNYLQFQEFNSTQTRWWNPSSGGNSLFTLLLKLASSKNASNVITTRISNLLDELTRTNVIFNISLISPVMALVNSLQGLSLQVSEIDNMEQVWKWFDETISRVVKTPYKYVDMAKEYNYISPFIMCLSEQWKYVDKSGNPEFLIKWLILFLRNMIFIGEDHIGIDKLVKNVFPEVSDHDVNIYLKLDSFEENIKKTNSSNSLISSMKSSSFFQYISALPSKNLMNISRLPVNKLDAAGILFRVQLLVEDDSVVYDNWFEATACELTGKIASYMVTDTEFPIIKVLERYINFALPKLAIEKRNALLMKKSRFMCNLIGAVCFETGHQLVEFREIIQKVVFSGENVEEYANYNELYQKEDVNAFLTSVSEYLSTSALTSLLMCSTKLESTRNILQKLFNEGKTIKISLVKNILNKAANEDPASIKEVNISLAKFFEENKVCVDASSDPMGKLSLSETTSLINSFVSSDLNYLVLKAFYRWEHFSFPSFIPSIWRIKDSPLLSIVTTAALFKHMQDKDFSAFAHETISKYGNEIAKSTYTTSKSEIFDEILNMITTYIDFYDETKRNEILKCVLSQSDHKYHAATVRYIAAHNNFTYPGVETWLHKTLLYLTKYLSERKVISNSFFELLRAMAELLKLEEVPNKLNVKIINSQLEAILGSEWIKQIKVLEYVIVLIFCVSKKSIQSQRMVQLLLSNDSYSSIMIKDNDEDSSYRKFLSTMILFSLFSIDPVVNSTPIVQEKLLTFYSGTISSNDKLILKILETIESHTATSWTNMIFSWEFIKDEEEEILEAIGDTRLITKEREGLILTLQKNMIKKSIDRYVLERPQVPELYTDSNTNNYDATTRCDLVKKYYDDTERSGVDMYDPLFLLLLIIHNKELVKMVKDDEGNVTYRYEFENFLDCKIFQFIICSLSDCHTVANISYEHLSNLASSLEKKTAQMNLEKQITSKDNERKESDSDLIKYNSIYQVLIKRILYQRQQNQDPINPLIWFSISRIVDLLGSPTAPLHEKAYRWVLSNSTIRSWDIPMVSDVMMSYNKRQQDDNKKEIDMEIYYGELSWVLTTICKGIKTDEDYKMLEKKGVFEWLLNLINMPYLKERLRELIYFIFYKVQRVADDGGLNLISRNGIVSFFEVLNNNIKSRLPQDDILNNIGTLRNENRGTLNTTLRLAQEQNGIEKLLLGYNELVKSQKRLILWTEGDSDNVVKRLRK
UniProt P53131: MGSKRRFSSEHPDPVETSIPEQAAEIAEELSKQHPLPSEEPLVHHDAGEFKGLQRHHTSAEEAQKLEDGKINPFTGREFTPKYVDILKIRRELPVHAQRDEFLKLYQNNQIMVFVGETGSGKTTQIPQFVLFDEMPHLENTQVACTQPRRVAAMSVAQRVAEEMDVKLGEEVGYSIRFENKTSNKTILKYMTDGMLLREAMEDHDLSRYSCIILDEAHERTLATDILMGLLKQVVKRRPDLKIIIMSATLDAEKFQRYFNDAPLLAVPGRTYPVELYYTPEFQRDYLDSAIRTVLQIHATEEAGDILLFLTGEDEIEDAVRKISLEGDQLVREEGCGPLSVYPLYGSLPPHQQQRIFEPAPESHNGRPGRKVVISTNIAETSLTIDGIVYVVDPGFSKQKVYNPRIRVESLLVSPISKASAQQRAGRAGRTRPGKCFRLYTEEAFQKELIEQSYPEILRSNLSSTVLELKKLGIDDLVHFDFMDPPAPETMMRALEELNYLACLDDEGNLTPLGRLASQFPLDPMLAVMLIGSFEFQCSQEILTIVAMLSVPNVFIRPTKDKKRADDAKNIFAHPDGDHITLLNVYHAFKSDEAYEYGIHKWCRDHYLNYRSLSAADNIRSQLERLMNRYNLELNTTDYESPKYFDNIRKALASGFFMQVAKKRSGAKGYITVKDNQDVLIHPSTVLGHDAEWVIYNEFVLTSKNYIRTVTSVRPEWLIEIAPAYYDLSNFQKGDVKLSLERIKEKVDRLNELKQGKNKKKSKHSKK
UniProt Q05022: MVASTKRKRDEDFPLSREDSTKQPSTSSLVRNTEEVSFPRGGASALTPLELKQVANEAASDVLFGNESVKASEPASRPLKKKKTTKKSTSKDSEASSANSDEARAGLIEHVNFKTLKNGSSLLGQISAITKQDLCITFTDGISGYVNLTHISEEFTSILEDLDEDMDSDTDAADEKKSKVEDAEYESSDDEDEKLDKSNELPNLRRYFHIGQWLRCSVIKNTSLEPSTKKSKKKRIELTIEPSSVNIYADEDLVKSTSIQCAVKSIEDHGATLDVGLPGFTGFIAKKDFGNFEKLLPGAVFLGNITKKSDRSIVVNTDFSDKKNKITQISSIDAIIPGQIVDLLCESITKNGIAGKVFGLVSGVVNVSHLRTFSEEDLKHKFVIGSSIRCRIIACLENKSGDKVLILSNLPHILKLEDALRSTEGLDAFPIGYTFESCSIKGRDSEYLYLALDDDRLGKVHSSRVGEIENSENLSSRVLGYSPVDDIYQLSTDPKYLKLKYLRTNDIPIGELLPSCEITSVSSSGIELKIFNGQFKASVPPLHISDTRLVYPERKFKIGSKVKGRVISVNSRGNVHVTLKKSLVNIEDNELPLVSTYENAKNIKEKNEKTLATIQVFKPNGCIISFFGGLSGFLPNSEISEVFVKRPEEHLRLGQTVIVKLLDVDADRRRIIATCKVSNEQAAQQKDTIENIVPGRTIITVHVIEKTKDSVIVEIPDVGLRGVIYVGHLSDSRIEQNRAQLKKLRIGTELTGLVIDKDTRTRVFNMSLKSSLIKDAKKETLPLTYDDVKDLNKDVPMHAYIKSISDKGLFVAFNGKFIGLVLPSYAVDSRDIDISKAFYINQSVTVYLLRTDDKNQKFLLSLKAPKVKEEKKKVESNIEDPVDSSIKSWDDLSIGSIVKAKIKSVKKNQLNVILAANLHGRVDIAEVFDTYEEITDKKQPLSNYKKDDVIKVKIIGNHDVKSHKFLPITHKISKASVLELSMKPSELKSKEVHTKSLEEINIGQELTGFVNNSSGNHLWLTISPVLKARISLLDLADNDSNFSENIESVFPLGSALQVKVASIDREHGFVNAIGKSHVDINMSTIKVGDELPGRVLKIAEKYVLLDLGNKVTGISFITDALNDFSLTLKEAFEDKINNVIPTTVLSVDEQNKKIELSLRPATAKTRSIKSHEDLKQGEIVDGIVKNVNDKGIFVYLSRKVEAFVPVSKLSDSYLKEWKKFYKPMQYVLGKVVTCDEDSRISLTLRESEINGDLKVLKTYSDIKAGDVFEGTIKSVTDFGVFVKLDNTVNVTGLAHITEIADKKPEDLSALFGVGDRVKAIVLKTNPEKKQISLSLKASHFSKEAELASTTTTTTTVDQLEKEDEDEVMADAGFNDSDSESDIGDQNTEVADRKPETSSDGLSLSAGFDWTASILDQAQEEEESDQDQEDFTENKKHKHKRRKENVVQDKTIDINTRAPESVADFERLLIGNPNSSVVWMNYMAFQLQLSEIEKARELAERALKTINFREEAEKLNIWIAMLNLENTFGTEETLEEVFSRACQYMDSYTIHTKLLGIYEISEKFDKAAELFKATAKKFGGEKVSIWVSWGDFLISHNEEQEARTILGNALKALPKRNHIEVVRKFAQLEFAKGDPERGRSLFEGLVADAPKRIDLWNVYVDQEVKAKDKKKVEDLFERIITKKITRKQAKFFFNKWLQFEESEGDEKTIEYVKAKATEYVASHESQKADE
UniProt Q02753: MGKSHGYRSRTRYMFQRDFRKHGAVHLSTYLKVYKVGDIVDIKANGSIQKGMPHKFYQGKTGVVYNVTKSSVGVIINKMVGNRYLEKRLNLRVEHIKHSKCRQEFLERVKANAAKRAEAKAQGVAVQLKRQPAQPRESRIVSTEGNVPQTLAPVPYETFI
UniProt P0C2H8: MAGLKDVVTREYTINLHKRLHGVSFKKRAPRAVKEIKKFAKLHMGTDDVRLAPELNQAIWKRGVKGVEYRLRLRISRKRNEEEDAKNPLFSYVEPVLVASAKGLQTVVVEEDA
UniProt P14126: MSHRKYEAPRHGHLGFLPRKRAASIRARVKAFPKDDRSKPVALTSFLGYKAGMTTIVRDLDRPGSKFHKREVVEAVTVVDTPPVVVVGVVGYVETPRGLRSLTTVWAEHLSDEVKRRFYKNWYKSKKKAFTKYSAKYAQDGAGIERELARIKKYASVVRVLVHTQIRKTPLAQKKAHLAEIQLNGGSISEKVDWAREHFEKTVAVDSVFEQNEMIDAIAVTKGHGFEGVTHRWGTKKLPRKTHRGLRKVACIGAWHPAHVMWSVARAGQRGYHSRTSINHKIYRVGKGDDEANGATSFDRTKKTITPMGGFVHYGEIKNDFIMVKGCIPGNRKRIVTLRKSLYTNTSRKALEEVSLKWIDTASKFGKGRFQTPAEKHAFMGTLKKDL
UniProt P0CX41: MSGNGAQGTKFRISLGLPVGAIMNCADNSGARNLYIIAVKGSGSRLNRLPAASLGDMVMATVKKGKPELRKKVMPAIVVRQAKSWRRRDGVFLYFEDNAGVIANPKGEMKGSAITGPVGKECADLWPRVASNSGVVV
UniProt P05743: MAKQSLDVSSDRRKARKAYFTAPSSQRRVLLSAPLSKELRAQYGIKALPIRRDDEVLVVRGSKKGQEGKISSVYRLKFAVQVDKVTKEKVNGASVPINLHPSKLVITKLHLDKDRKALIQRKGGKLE

Key:
[1] = target: T1, Nop2-TAP (S. cerevisiae) (UniProt P40991); experiment: affinity purification with mass spectrometry; Nop2-TAP particles isolated from whole-cell lysate of wild-type and Δdbp7 cells on IgG sepharose, eluted by overnight TEV cleavage; MS, two biological replicates
T1 sequence: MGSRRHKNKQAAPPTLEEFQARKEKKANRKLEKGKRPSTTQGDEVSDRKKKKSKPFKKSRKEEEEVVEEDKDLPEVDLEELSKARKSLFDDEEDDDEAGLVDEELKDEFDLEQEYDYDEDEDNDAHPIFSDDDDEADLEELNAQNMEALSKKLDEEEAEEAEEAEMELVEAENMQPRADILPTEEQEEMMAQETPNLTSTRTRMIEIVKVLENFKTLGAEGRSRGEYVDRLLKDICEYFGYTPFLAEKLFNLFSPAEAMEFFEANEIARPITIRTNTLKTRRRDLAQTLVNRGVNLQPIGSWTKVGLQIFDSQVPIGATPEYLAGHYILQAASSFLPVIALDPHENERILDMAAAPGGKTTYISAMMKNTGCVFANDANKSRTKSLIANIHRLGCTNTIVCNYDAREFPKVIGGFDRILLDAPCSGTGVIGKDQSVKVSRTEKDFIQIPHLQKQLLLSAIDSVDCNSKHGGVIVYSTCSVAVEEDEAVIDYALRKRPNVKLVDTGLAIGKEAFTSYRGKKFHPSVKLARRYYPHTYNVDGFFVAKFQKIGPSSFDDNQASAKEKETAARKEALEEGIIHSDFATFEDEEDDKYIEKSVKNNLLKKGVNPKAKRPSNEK

[2] = target: T2, Dbp7-TAP (S. cerevisiae) (UniProt P36120); experiment: affinity purification with mass spectrometry; Dbp7-TAP captured from whole-cell lysate on IgG sepharose (50 mM Tris-HCl pH 7.8, 150 mM NaCl, 1.5 mM MgCl2, 0.05% NP-40, 2 mM DTT), eluted with TEV protease overnight at 4 °C; input and eluate by MS, wild-type extract as control; co-purified pre-ribosomal particles
T2 sequence: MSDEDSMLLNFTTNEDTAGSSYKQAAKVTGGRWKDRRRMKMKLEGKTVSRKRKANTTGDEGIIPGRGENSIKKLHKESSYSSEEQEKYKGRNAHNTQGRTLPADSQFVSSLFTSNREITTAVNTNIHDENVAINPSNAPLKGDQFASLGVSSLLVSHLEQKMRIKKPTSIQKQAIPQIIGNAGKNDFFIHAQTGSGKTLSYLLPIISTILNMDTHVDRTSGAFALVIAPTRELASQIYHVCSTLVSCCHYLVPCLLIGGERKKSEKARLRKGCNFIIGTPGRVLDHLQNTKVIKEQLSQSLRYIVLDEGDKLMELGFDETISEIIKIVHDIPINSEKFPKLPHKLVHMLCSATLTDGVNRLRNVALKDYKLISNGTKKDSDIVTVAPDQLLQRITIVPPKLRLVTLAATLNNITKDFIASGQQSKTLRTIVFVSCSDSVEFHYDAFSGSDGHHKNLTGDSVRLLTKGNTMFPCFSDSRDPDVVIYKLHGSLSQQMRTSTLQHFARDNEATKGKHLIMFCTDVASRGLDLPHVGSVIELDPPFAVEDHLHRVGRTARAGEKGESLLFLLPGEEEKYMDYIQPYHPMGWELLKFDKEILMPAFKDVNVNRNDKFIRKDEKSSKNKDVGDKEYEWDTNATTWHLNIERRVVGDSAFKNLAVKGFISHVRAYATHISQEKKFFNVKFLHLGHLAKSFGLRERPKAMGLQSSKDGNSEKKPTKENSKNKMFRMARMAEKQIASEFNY

[3] = target: T1, Nop2-TAP (S. cerevisiae); experiment: affinity purification with mass spectrometry; Nop2-TAP particles isolated from whole-cell lysate of wild-type and Δdbp7 cells on IgG sepharose, eluted by overnight TEV cleavage; MS, two biological replicates; remark: listed apart in the source

| Molecule | binding [1] | binding [2] | binding [3] |
| --- | --- | --- | --- |
| Cbf5 (from UniProt P33322 1-483) | binds |  |  |
| Dbp3 (from UniProt P20447 1-523) (enzyme) | binds |  |  |
| Gar1 (from UniProt P28007 1-205) | binds |  |  |
| Npa1 (from UniProt P34241 1-1764) | binds |  |  |
| Prp43 (from UniProt P53131 1-767) (enzyme) | binds |  |  |
| Rrp5 (from UniProt Q05022 1-1729) | binds |  |  |
| eL21 (from UniProt Q02753) | binds |  |  |
| eL31 (from UniProt P0C2H8) | binds |  |  |
| uL3 (from UniProt P14126 1-387) | binds | binds |  |
| uL14 (from UniProt P0CX41 1-137) | binds |  |  |
| uL24 (from UniProt P05743) | binds |  |  |
| Mak5 (enzyme, UniProt P38112 1-773) MGKKRAPQKGKTVTKPQEIIVDESKLNWKPVDIPDTLDDFGGFYGLEEIDGVDVKVVDGKVTFVTKKDSKVLKDSNKEKVGDDQESVENESGSDSESELLEFKNLDDIKEGELSAASYSSSDEDEQGNIESSKLTDPSEDVDEDVDEDVLKENVFNKDINIDDISPVNLPEWTNLAPLSMTILQSLQNLNFLRPTEIQKKSIPVIMQGVDVMGKASTGSGKTLAYGIPIVEKLISNFSQKNKKPISLIFTPTRELAHQVTDHLKKICEPVLAKSQYSILSLTGGLSIQKQQRLLKYDNSGQIVIATPGRFLELLEKDNTLIKRFSKVNTLILDEADRLLQDGHFDEFEKIIKHLLVERRKNRENSEGSSKIWQTLIFSATFSIDLFDKLSSSRQVKDRRFKNNEDELNAVIQHLMSKIHFNSKPVIIDTNPESKVSSQIKESLIECPPLERDLYCYYFLTMFPGTTLIFCNAIDSVKKLTVYLNNLGIPAFQIHSSMTQKNRLKSLERFKQQSAKQKTINHSNPDSVQLSTVLIASDVAARGLDIPGVQHVIHYHLPRSTDIYIHRSGRTARAGSEGVSAMICSPQESMGPLRKLRKTLATKNSVSTDLNSRSTNRKPIKWQNTVPLLPIETDILSQLRERSRLAGELADHEIASNSLRKDDNWLKKAADELGIDVDSDEDDISKSNSDTFLLKNKNKKMQKTINKDKVKAMRATLNELLSVPIRKDRRQKYLTGGLVNLADNLVKKRGHNSIIGHEKTNALETLKKKKKRNN |  |  | binds |
| Nop4 (protein, UniProt P37838 1-685) MEETIENVEVPSSNVSKQNDDGLDMKTLFVRSIPQDVTDEQLADFFSNFAPIKHAVVVKDTNKRSRGFGFVSFAVEDDTKEALAKARKTKFNGHILRVDIAKRRDRSKKTSEVVEKSTPESSEKITGQNNEDEDDADGEDSMLKGKPKLIIRNMPWSCRDPVKLKKIFGRYGTVVEATIPRKRDGKLCGFAFVTMKKISNCRIALENTKDLKIDGRKVAVDFAVQKNRWEDYKKAQPEMNDKDDNESGNEDAEENHDDEEDENEEEDRQVDQASKNKESKRKAQNKREDFSVFVRNVPYDATEESLAPHFSKFGSVKYALPVIDKSTGLAKGTAFVAFKDQYTYNECIKNAPAAGSTSLLIGDDVMPEYVYEGRVLSITPTLVREDAGRMAEKNAAKRKEALGKAPGEKDRRNLYLLNEGRVVEGSKMADLLTNTDMEIREKSYKLRVEQLKKNPSLHLSMTRLAIRNLPRAMNDKALKALARKAVVEFATEVKNKERHPLSKEEIIRSTKEKYKFMGPDEIEAQKKKDKKSGVVKQAKVIMEVKGSTAGRSRGYGFVEFRDHKNALMGLRWLNCHAVTSDEILEGLNDDEKKQVDNDLGKGRRLCVEFAIENSNVVKRRREQLKQARTKRTRPDNEDTGDVGESENKKPKKEEATTPTNPDDKKMGDDIKRIIGFKRKRKHAKK |  |  | binds |
| Nop12 (protein, UniProt Q08208 1-459) MSSAIDNLFGNIDEKKIESSVDKLFSSSCGPINKLEVKSKTRTVLPDSKKRERAAEADQEEKEASKPDVSDEQTEEVALPKVKKAKKSKRNDEDEDLEARYYAKLLNEEAEAEDDKPTVTKTDETSVPLTSAAKKVDFKEDELEKAERTVFIGNILSTVITSKKVYKEFKKLFGTNPIAETEESGNEKEEESSKKSDNNEFAIESIRFRSISFDEALPRKVAFVQQKFHKSRDTINAYIVYKNKSAVRKICSNLNAVVFQDHHLRVDSVAHPAPHDKKRSIFVGNLDFEEIEESLWKHFEPCGDIEYVRIIRDSKTNMGKGFAYVQFKDLQSVNKALLLNEKPMKSQKQEDENTKKPTKKARKLRVSRCKNMKKGTTIGTGLDRNGLTDSQRTRAGRAKKILGKADRATLGQEITIEGLRAKKGEGSTHLKKKKQRSATGRVTKRSIAFKKAQAEKSKK |  |  | binds |
| eL38 (protein, UniProt P49167 1-78) MAREITDIKQFLELTRRADVKTATVKINKKLNKAGKPFRQTKFKVRGSSSLYTLVINDAGKAKKLIQSLPPTLKVNRL |  |  | binds |
